# The supplement of paper PMC11237882
# The list shows a part of the results. Values are worked out from sequencing counts and are noisy.
# T1: Homer1 EVH1 domain
# T1 chain: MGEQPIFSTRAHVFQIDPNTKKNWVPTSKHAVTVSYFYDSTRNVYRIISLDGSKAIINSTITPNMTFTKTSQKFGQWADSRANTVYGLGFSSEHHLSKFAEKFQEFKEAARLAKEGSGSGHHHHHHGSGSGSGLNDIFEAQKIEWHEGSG
# Molecular target: T1, Homer1 EVH1 domain
# Assay: enrichment score (AUC of log2 frequency ratio across FACS sorting rounds) (log2 AUC); higher = stronger enrichment for Homer1 EVH1 binding
row,Binder,enrichment score
1,LPTLGDVESLVPLYLHLSVNQKLVAAYILGLITMAI,0.517
2,MKLAFLFLGPMALLLLAGYGCVLGASSGNLRTFVGY,0.472
3,ISVVSFFVLMASYLIILHFLRSHNLEGQHKALSTYA,1.43
4,PAWFEDFANGLLSAQKLTAALIVLHTVFISITHVHR,2.36
5,GVDEYGWIAAAVGWSLWFLTLILLCVDKLMKLTPDE,4.51
6,EKWLQDNLIVVAGVFMGIALLQIFGICLAQNLEQME,3.7
7,QPSQQTTPALVLAPAQFLSSSPRPTSSGYSIFHLAG,5.84
8,LNQRFSITAQLLVLYYILSYEEALLANTKTLSAMQR,2.99
9,GICLLITIQLFVAGLIVLLLDELLQKGYGLGSGISL,0.417
10,LICFLVMSSSYLAFRISRLEQQLCSLSWDDPVPGHR,2.85
11,FSVPKYSKFSKPTCFLLEVPEANWAFLVLPSLLILL,-0.204
12,RPRKEPVDEDLYPEHYQKYSDYIKGSNLDAPEPYRM,6.2
13,GGPRTAKLLTSCLFVLLWPLYIFFSSLEAYCHIKGF,-1.32
14,PHFFCDMSALLKLAFSDTRVNEWVIFIMGGLILVIP,2.18
15,QCSPLGCLIRILIDGISLGLTLRLWDVYLVEGEQAL,1.48
16,VPSEIYRFGTQYWFLGCCYFLGLLIPAHIFIPVFYS,3.16
17,QAVQDSSLPRVARCYRHNRLPVVCWKNSRSGTLLLR,-0.345
18,VSSLFLFSVLLFVAVRLCRRSRAAPVGRCSVPEGPF,-0.855
19,LPRGPTTPDEGCLRYFVLGTVAALVALVLNVFYPLV,-1.44
20,MALLFLLPLVMQGVSRAEMGTADLGPSSVPTPTNVT,3.24
21,MALGVFFGLVFTWLACKGQGSMDEGTADERAPLIRT,3.78
22,MAVLLLLLRALRRGPGPGPRPLWGPGPAWSPGFPAR,0.931

row,Binder,enrichment score
1,LKRRSSFYIVNLLIPCVLISFLAPLGFYLPAASGEK,1.87
2,SLRWQLLSIIVLMAGQQLSGINAINYYADTIYTSAG,1.25
3,CKDNIHKALQFFAKGYGKNNEPLRGYILTFLIAMAL,2.06
4,GIMGLYKGLEAKLLQTVLTAALMFLVYEKLTTATFT,4.11
5,PSNFRDCGQWFRHLLYAVTKLPQITEIGMKRWILPS,0.584
6,TWLSFTLFVILVFFPLIAHYYLTTLDEADEAGKRIF,3.67
7,VFLLNPWTAGIIVMVLALMTVELFGMMGLIGIKLSA,1.8
8,LIVSCCWLAVLVTMPAALGLWSLYLAPLESSCQTSC,-0.982
9,PMYLFLCTLSVSEILFTVAITPRMLADLLSTHHSIT,-1.4
10,SLVVGIFGLYIFLFDEATKADPLWGGPSLANVNIAI,-0.383
11,GEEYLVKQGIDLSPWGLWKNHVALACMIVIFLTIAY,3.64
12,PTRPPATPGRPGSPIWGLPPRGLPSVRVPRHRGLQP,2.99
13,SYHEVGLLLLFLSVGISIFSVLIYSVEKDDHTSSLT,3.95
14,PGLYFRACWLFLSPATLLALLVYSIVKYQPSEYGSY,2.48
15,PFASLKKVGQDSIVLLICITVFLSYLPEAGQYSSFF,2.17
16,MATATEQWVLVEMVQALYEAPAYHLILEGILILWII,-0.0412
17,NLSETNLLPQSLQHYLPIRSPSLVPCFLFIFFFLLS,3.14
18,MFDDYSATLPLLIVVILENIAVCFVYGIDKFMEDLK,0.899
19,CGKRVFAVTETLQMSIYHFAGLFVLLCLGLGSALLS,3.88
20,NLRQIMVISVLAAAVSLLYFSVVIIRNKYGRLTRDK,2.29
21,MRALEGPGLSLLCLVLALPALLPVPAVRGVAETPTY,2.84
22,DLLVTSLGVVWVVLHFALLNAYTYMMGACVIVFRFF,1.37
